Data source: PubChem BioAssay AID1259308 (NCATS, 2017)
Aim: 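Genes whose loss raises luciferase production in HEK293 cells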 (primary screen). Cells: human HEK293 embryonic kidney cells stably expressing firefly luciferase (HEK-CMV-Luc2-Hygro). Reagent: single siRNA against human genes, 0.8 pmol siRNA per well. Time to read-out: 72 h. Detection: 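Reporter luminescence and viable-cell signal on separate replicate plates, given as percent of non-targeting control and median/MAD z-scores, plus per-cell luciferase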. Direction: total luciferase, z-score and total luciferase, % of control: higher = more reporter protein produced; luciferase per cell, z-score: higher = more reporter output per viable cell; viable cells, % of control: higher = more viable cells. Call rule: 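An siRNA counts as active if its total luciferase robust z-score exceeds 3; genes with two or more such siRNAs out of three were retested with fresh siRNAs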. Meaning of the calls: active = raised luciferase; inactive = no rise.
Here is an unselected part of about 59,000 reagents. Of all reagents, about 1,510 (2.6%) are marked active. 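Calls use total luciferase alone and ignore viability, so some active siRNAs may act by altering cell number.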 A number with no mark means an inactive call. Reagents against one gene are numbered here.

| target gene | reagent no. | total luciferase, z-score | total luciferase, % of control | luciferase per cell, z-score | viable cells, % of control |
| --- | --- | --- | --- | --- | --- |
| SLC2A4RG | 1 | -1.34 | 55.2 | -1.77 | 98.4 |
| SLC2A4RG | 2 | 0.614 | 94.1 | 0.176 | 100 |
| SLC2A4RG | 3 | 0.214 | 86.1 | 0.401 | 86.6 |
| TAF1B | 1 | -0.0457 | 81 | -0.283 | 97.5 |
| TAF1B | 2 | 0.516 | 92.1 | 1.93 | 62 |
| TAF1B | 3 | -0.694 | 68.1 | 0.993 | 58.6 |
| GTPBP1 | 1 | -0.436 | 73.2 | -0.369 | 90.1 |
| GTPBP1 | 2 | 0.897 | 99.7 | 0.468 | 98.5 |
| GTPBP1 | 3 | 0.506 | 91.9 | -0.148 | 107 |
| MSH3 | 1 | -0.818 | 65.6 | -1.47 | 108 |
| MSH3 | 2 | 1.88 | 119 | 0.894 | 105 |
| MSH3 | 3 | 0.0414 | 82.7 | -0.105 | 95 |
| XAGE3 | 1 | 0.329 | 88.4 | 0.676 | 82.7 |
| XAGE3 | 2 | 1.01 | 102 | 3.05 | 51 |
| XAGE3 | 3 | -0.511 | 71.7 | -0.305 | 86.8 |
| SPRR3 | 1 | 1.91 | 120 | 1.37 | 93.4 |
| SPRR3 | 2 | 1.26 | 107 | 0.853 | 95.5 |
| SPRR3 | 3 | 1.3 | 108 | 0.771 | 98.3 |
| POT1 | 1 | 0.0221 | 82.3 | -0.288 | 99.2 |
| POT1 | 2 | -0.397 | 74 | -0.937 | 106 |
| POT1 | 3 | 0.315 | 88.1 | -0.301 | 107 |
| GPATCH2L | 1 | -0.345 | 75 | -0.219 | 88.8 |
| GPATCH2L | 2 | -0.0693 | 80.5 | -0.299 | 97.3 |
| GPATCH2L | 3 | -0.227 | 77.4 | 0.00415 | 86.4 |
| AHDC1 | 1 | 0.867 | 99.1 | 0.641 | 93.6 |
| AHDC1 | 2 | -1.46 | 52.9 | -0.658 | 70.3 |
| AHDC1 | 3 | 0.842 | 98.6 | 1.58 | 72.8 |
| MYBPH | 1 | -1.33 | 55.5 | -0.76 | 75.7 |
| MYBPH | 2 | -0.299 | 75.9 | -0.843 | 106 |
| MYBPH | 3 | 0.849 | 98.8 | 0.553 | 95.4 |
| CKMT1B | 1 | -0.594 | 70.1 | -0.837 | 97.6 |
| CKMT1B | 2 | -0.127 | 79.4 | -0.148 | 92.2 |
| CKMT1B | 3 | 0.436 | 90.6 | 0.0367 | 100 |
| CDT1 | 1 | 1.63 | 114 | 1.49 | 86.3 |
| CDT1 | 2 | -1.29 | 56.3 | -1.21 | 86.5 |
| CDT1 | 3 | 1.62 | 114 | 1.51 | 85.7 |
| TIFAB | 1 | 1.35 | 109 | -0.0316 | 122 |
| TIFAB | 2 | -0.339 | 75.1 | -0.314 | 91.2 |
| TIFAB | 3 | 1.56 | 113 | 0.64 | 107 |
| OR1I1 | 1 | 0.487 | 91.6 | 0.32 | 94 |
| OR1I1 | 2 | 1.6 | 114 | 1.11 | 95 |
| OR1I1 | 3 | 0.738 | 96.6 | 0.929 | 84.5 |
| PIAS4 | 1 | -0.133 | 79.2 | -0.137 | 91.8 |
| PIAS4 | 2 | 0.0802 | 83.5 | 0.582 | 80 |
| PIAS4 | 3 | -0.105 | 79.8 | -0.188 | 93.7 |
| KLHL4 | 1 | -0.388 | 74.2 | -0.128 | 85.7 |
| KLHL4 | 2 | 0.665 | 95.1 | 1.12 | 79.2 |
| KLHL4 | 3 | 0.391 | 89.7 | 0.135 | 96.7 |
| GHSR | 1 | 0.0096 | 82.1 | 0.0387 | 90.8 |
| GHSR | 2 | -0.347 | 75 | -0.484 | 95.2 |
| GHSR | 3 | 0.57 | 93.2 | 1.17 | 76.6 |
| CAMP | 1 | 1.86 | 119 | 1.49 | 89.7 |
| CAMP | 2 | -2.03 | 41.6 | -2.08 | 80.3 |
| CAMP | 3 | -2.89 | 24.4 | -3.08 | 61.5 |
| SFXN4 | 1 | 0.44 | 90.6 | 0.637 | 85.6 |
| SFXN4 | 2 | -0.643 | 69.1 | -0.838 | 96.3 |
| SFXN4 | 3 | -0.61 | 69.8 | -0.746 | 94.9 |
| LOC155060 | 1 | 2.16 | 125 | 2.13 | 79.6 |
| LOC155060 | 2 | 0.794 | 97.7 | 1.01 | 83.7 |
| LOC155060 | 3 | 0.0234 | 82.4 | -0.183 | 96.6 |
| SNX19P3 | 1 | 0.273 | 87.3 | -0.264 | 105 |
| SNX19P3 | 2 | -1.18 | 58.4 | -0.379 | 72.1 |
| SNX19P3 | 3 | 0.02 | 82.3 | 0.362 | 83.6 |
| SNX19P3 | 4 | 1.44 | 111 | 0.782 | 101 |
| SNX19P3 | 5 | -0.713 | 67.7 | -0.35 | 83 |
| SNX19P3 | 6 | -1.89 | 44.3 | -1.41 | 71.8 |
| SNX19P3 | 7 | 2.03 | 122 | 1.25 | 98.2 |
| SNX19P3 | 8 | 0.707 | 95.9 | 0.492 | 94.2 |
| SNX19P3 | 9 | 0.819 | 98.2 | 0.384 | 99.1 |
| BCL2L10 | 1 | -0.873 | 64.5 | -0.782 | 88.6 |
| BCL2L10 | 2 | -0.0735 | 80.4 | -0.0114 | 90.1 |
| BCL2L10 | 3 | -0.16 | 78.7 | -0.41 | 98 |
| STX18 | 1 | -0.421 | 73.5 | -0.288 | 88.6 |
| STX18 | 2 | -0.322 | 75.5 | -0.494 | 96.1 |
| STX18 | 3 | 0.635 | 94.5 | 0.313 | 97.3 |

No new results follow: an excerpt of the list.
| target gene | reagent no. | total luciferase, z-score | total luciferase, % of control | luciferase per cell, z-score | viable cells, % of control |
| --- | --- | --- | --- | --- | --- |
| KLHL4 | 1 | -0.388 | 74.2 | -0.128 | 85.7 |
| KLHL4 | 2 | 0.665 | 95.1 | 1.12 | 79.2 |
| KLHL4 | 3 | 0.391 | 89.7 | 0.135 | 96.7 |
| GHSR | 1 | 0.0096 | 82.1 | 0.0387 | 90.8 |
| GHSR | 2 | -0.347 | 75 | -0.484 | 95.2 |
| GHSR | 3 | 0.57 | 93.2 | 1.17 | 76.6 |
| CAMP | 1 | 1.86 | 119 | 1.49 | 89.7 |
| CAMP | 2 | -2.03 | 41.6 | -2.08 | 80.3 |
| CAMP | 3 | -2.89 | 24.4 | -3.08 | 61.5 |
| SFXN4 | 1 | 0.44 | 90.6 | 0.637 | 85.6 |
| SFXN4 | 2 | -0.643 | 69.1 | -0.838 | 96.3 |
